# Values quoted from earlier work in patent publication US20020016341A1, “Heterocyclic thioester and ketone hair growth compositions and uses” (priority 1998, published 2002).
# At least one compound was matched to its structure with a doubt left.
# Conditions: topical, but not oral, application; cited from earlier work
structure (smiles),measurement,value
C=CC[C@@H]1/C=C(\C)C[C@H](C)C[C@H](OC)[C@H]2O[C@@](O)(C(=O)C(=O)N3CCCC[C@H]3C(=O)O[C@H](/C(C)=C/[C@@H]3CC[C@@H](O)[C@H](OC)C3)[C@H](C)[C@@H](O)CC1=O)[C@H](C)C[C@@H]2OC [FK506],hair growth,stimulates hair growth in a dose-dependent manner
